# Measurements as given in patent US7816374B2, “Method of treating neutrophil-related diseases with topical anesthetics” (Mayo Foundation for Medical Education and Research, priority 2000, dated 2010).
# Experiments:
# [1] = human serum; cited from earlier work
# neutrophils = experiment: Neutrophil extracellular superoxide production (cytochrome c reduction plate assay); format: cell-based, human; details: inferred from inability to alter PMA stimulated superoxide production
# Experimental: Neutrophils were purified from heparinized venous blood of normal volunteers by sedimentation through a cushion of 1.085 gm/ml Percoll made in PIPES buffer, pH 7.4, supplemented with 50 mM NaCl, 5 mM KCl, 25 mM NaOH, and 5.4 mM glucose) and centrifuged at 2,000 rmp in a Beckman CS-6KR centrifuge for 30 minutes with no brake. Plasma, mononuclear cells, and Percoll layers were removed and the erythrocytes were lysed by osmotic shock.
# The superoxide production was measured using cytochrome c reduction in a plate assay at a concentration of 50,000 neutrophils/well and was done in duplicate.
# Neutrophils were isolated in a Percoll gradient to remove PBMC.
# The extracellular superoxide assay (Cytochrome C method) was performed as follows: 1) The wells of a 96-well plate were blocked with 50 ul of 1% HSA for at least 2 hours at 37° C. […] The cells were resuspended in CytoC mix to 0.5×10^6 cells/mL and kept on ice until ready for use. […] 7) The 96 well plate was placed in a ThermoMax plate reader and the OD550 was read at 37° C. The plate was read at time 0 and then every 10 minutes for 1 hour, then every 30 minutes for 3 hours. 8) The concentration of superoxide released was calculated by using the following formula to calculate the nmol of Cytochrome C reduced: 19.1*[OD550(time x)−OD550(time 0)]/0.05=nmol Cytochrome C reduced per 1×10^6 cells=nmol superoxide released per 1×10^6 cells.
# [2] = system: neutrophil-mediated injury; details: animal models; cited from earlier work
compound,measurement,setting,value
"CCN(CC)CC(=O)Nc1c(C)cccc1C [lidocaine, (2-diethylamino)-N-(2,6-dimethylphenyl)acetamide]",serum concentration above which lidocaine toxicity occurs,[1],5000 to 6000 ng/mL
same,toxicity to the neutrophil,neutrophils,not toxic to the neutrophil
same,"neutrophil tissue damage induced by hydrochloric acid, reperfusion injury and endotoxin",[2],inhibits neutrophil tissue damage
